In patent US11628198B2, “Methods for prevention and treatment of acute renal injury” (Cornell University, priority 2008, dated 2023):

Test system: contrast induced nephropathy in diabetic animal model
Experiment: CIN in diabetic (HFD/STZ) rats with iohexol, Experiment 2
Format: in vivo, rat
Method: In this experiment, 30 SD rats were fed with high fat diet for 6 weeks, followed by the injection with low dose streptozotocin (30 mg/kg). After 9 more weeks, the rats were used in the contrast induced nephropathy study. The animals were divided into 2 groups with the doses, dosing schedules and study protocol as follows. On day 0, the weight of the animals was determined and glucose and serum samples were collected. On day 1, Scr was assayed and spot urine collection performed. On days 2 and 3, 3 mg/kg SS-31 (Group 1) or a vehicle (Group 2) was administered s.c. 30 min prior to the dye injection (6 mL/kg i.v. tail vein). SS-31 (Group 1) or PBS (Group 2) administration was repeated at 2 h, 1 day, 2, days, 3 days, 4 days, and 5 day post-dye administration. On day 8, serum and urine samples were collected and the rats were euthaniszed to harvest kidneys and vital organs.
Renal function: Renal function was assessed by determining serum and urinary creatinine using Jiancheng Cr kit (Nanjing, P.R.C) at baseline, 24 h, 3 day and 6 days following contrast dye (Iohexol) administration. The creatinine clearance was calculated based on the Scr, Ucr and Urinary volume. Samples were analyzed by students t-test and differences were considered significant at p<0.05.

What does the source list for D-Arg-2′6′Dmt-Lys-Phe-NH2 [SS-31]?
Body weight (T1 (24 h post dye)): 566.5 ± 20.3 g; Body weight (T2 (3 day post dye)): 565.6 ± 21 g; Body weight (T3 (6 days post dye)): 558.3 ± 20.1 g
